Reference: article PMC13539228

Biological target: PipA, bait in pBT (bacterial two-hybrid) (P. aeruginosa)
Experiment: two-hybrid; bacterial two-hybrid (BacterioMatch II, lambda repressor-based): bait in pBT, prey in pTRG, co-transformed into the E. coli reporter strain; growth on M9 without histidine with 12.5 ug/ml streptomycin and 5 mM 3-AT

| Binder | binding |
| --- | --- |
| PA0937, prey in pTRG (bacterial two-hybrid) (protein, UniProt Q9I521 1-179) MSMSLRDQLLKAGLVNEKQAKQATKQKQKQQRLEHKNQVDKDDSQRQAAEQAKAEKLARDQELNRQQQEKAEKKAKAAQIKQLIEGTRLPKLESDDYYNFVDAKKVKRIAVNDLIRDKLSRGSLAIVSYDGRYEIVPRDAAVKIQERDPRRVVLLNVQSQEPDEDDPYKDYVVPDDLMW | binds |
| PA2562, prey in pTRG (bacterial two-hybrid) (protein, UniProt Q9I0S3 1-170) MFNTRSVLALVVSLSLIGGTPAVLADPGNGKGNPHGNQMDGGKGNKGNKGNQGGHDNHGGPGNKGGGAGQKGNGGGNWDSGPRIDVGGVRVILGDNRGYWNPGPALPPGIQKNLARGKPLPPGIAKKLDGRLLGRLPHYDGYEWMQAGTDLLLVAVATGLIYEVLDNVLD | binds |
| PA1899, prey in pTRG (bacterial two-hybrid) (protein, UniProt Q9I2J9 1-162) MREYQRLKGFTDNLELRRRNRATVEHYMRMKGAERLQRHSLFVEDGCAGNWTTESGEPLVFRGHESLRRLAEWLERCFPDWEWHNVRIFETEDPNHFWVECDGRGKALVPGYPQGYCENHYIHSFELENGRIKRNREFMNPMQKLRALGIAVPQIKRDGIPT | no binding |
| PA3196, prey in pTRG (bacterial two-hybrid) (protein, UniProt Q9HZ44 1-176) MKETLNELITLISTGCMGAEEIRRIADEAAQAYADPAGFLAANPDINYDDSFPIPLGEWVVVGSLPDIVLFQADTYAELFARIVASFGKDVAFNIKPKQLLKTEPLVALNRIQVQLSSMYPEKGGYVLVDFSEPLDDELQAVLVYTQDLPRVMALCVEAGIYAAPAYESLRDAEAE | no binding |
| PA3309, prey in pTRG (bacterial two-hybrid) (protein, UniProt Q9HYT5 1-151) MYDRILVAVDGSPVSDRALEEAIKLAGLSGGKLRVITIVDSPLRHLPDYAVYYNPEPLREAALKAADDVLAKAREKVEASNVEGATFDRVCQERASEEIAERIELEAQASDADVVVMGTHGRRGMRRLMLGSVAEGLIRVASRPVLLVRDK | binds |

These are yes or no findings as the source states them, for the method shown. Binding can be weak; no strength is given.
